# Test results published in PubChem BioAssay AID624297 (National Center for Advancing Translational Sciences (NCATS), 2012).
# The whole screen tested about 340,000 compounds, of which about 6,200 (1.8%) were called active. This list was built around the results that the source calls inconclusive (neither active nor inactive); the mix of calls is not that of the screen. Calls come from the whole dose curve; as a rule, active = well fitted activation curve with a large enough effect; inconclusive = small, poorly fitted or top-dose-only effect; inactive = no such curve, though single readings can be large or run the other way. Potencies of inconclusive entries are doubtful fits and often do not repeat.
# Assay: A quantitative high throughput screen for small molecules that induce DNA re-replication in SW480 colon adenocarcinoma cells. For re-replication activation: % of control where 0% means no effect. Note: nearly all actives have a fitted effect of over 55% in size.
# Details: Hoechst DNA content imaging, 48 h; re-replication activation: at 46.1 µM (top of the series) unless noted
# How it was run: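 First, 250 cells per well were seeded. Next, compound or vehicle (23 nL) was pinned in, plates sat 48 hr at 37 C. Finally Hoechst was added for 40 min before fluorescence scanning.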
# Potency is the fitted concentration of half-maximal effect.
SMILES,Potency,re-replication activation
O=C(COc1ccc(S(=O)(=O)N2CCCC2)cc1)NCC1CCCO1 (stereo not drawn),"inconclusive: 9.2 µM [activator, single point]",
CCOc1ccc(NC(=O)CC2C(=O)N(c3ccccc3)C(=O)N2CCc2cccs2)cc1 (stereo not drawn),"inconclusive: 29.1 µM [activator, single point]",
Cn1nc(C(C)(C)C)cc1C(=O)O,inactive,
CCN(CC)CCn1c(=O)n(-c2ccc(Cl)cc2)c(=O)c2c3c(sc21)CN(C)CC3,"inconclusive: 29.1 µM [activator, single point]",
CCOC(=O)[C@@H]1[C@H]2COc3ccccc3[C@@H]2N2C(=O)N(c3cccc(Cl)c3)C(=O)[C@@]12C,"inconclusive: 3.26 µM [activator, partial curve, poor fit]",
C=CCSc1cc(C)nc2c(-c3ccccc3)c(C)nn12,"inconclusive: 3.66 µM [activator, partial curve, poor fit]",
O=C(NCc1ccco1)C1Cc2ccccc2CN1S(=O)(=O)c1ccccc1F (stereo not drawn),"inconclusive: 23.1 µM [activator, single point]",
Cn1c(=O)c([N+](=O)[O-])c(Cl)c2ccccc21,active: 16.4 µM,
COc1cc2c(cc1OC)[C@@H](NC(=O)COc1ccccc1)[C@H](OCc1ccccc1)C2,inactive,
Cn1cccc1C(C#N)c1ncc(C(F)(F)F)cc1Cl (stereo not drawn),"inconclusive: 29.1 µM [activator, single point]",
CNC(=O)/C(C#N)=C/c1ccc(OCCOc2ccccc2)cc1,"inconclusive: 6.51 µM [activator, partial curve, poor fit]",
C=CC(=O)Nc1cccc(Oc2ccnc3[nH]ccc23)c1,"inconclusive: 1.46 µM [activator, partial curve, poor fit]",
C[C@H]1CN([C@@H](C)CO)C(=O)c2cc(NC(=O)C3CCCCC3)ccc2O[C@H]1CN(C)Cc1ccc(-c2ccccc2)cc1,inactive,
CC(C)Oc1ccc(CCC(=O)N/N=C/c2ccncc2)cc1,"inconclusive: 11.6 µM [activator, single point]",
S=c1[nH]nc(-c2cc(-c3ccccc3)n[nH]2)n1/N=C/c1cccs1,"inconclusive: 11.6 µM [activator, partial curve, poor fit]",
Cc1ccc(C)c(NC(=S)NCCSc2ccc(Cl)cc2)c1,inactive,
CCn1c(SCC(=O)N2CCCCC2C)nnc1-c1ccc(S(=O)(=O)N2CCN(C)CC2)cc1 (stereo not drawn),"inconclusive: 6.51 µM [activator, full curve]",
CC1Sc2ccc(C(=O)N3CCCC(C(F)(F)F)C3)cc2NC1=O (stereo not drawn),"inconclusive: 5.8 µM [activator, partial curve, poor fit]",
Cc1ccc(-n2cc(CNCCCn3ccnc3C)c(-c3ccc(F)cc3)n2)cc1,"inconclusive: 29.1 µM [activator, single point]",
Cc1sc(NC(=O)c2ccco2)c(C(c2cccnc2)N2CCN(c3ccc(F)cc3)CC2)c1C (stereo not drawn),"inconclusive: 16.4 µM [activator, single point]",
COc1ccc(OC)c(-c2nc3cc4ccccc4cc3nc2-c2ccccc2)c1,"inconclusive: 29.1 µM [activator, single point]",
CCN1CCN(c2ccc(S(=O)(=O)N3CCCCC3)cc2NC(=O)COc2cc(C)ccc2Cl)CC1,"inconclusive: 16.4 µM [activator, single point]",
Cc1cc(C)n(Cc2cc(C(=O)O)c3ccccc3n2)n1,inactive,

SMILES,Potency,re-replication activation
c1ccc(-c2ccc3c(c2)NC(C2Nc4cc(-c5ccccc5)ccc4O2)O3)cc1 (stereo not drawn),"inconclusive: 18.4 µM [activator, partial curve, poor fit]",
O=C(Nc1ccc(Cl)cc1)Nc1ccccc1Sc1ncc([N+](=O)[O-])s1,"inconclusive: 18.4 µM [activator, partial curve, poor fit]",
CCCC(=O)N1N=C(c2ccccc2)CC1c1cn(C)c2ccccc12 (stereo not drawn),"inconclusive: 20.6 µM [activator, partial curve, poor fit]",
COc1ccc(-c2nn(C)c(=O)c3ccccc23)cc1NC(=O)COc1ccccc1,"inconclusive: 20.6 µM [activator, partial curve, poor fit]",
Cc1ccc(NC(=O)CS(=O)CC(=O)NCCCc2ccccc2)cc1Cl (stereo not drawn),active: 7.31 µM,
CCOc1ccc(N(C(=O)CNC(=O)c2cccs2)C(C(=O)NCC2CCCO2)c2ccc(OC)c(OC)c2)cc1 (stereo not drawn),"inconclusive: 3.26 µM [activator, full curve, poor fit]",
CSc1nn(CCc2ccncc2)c(=S)s1,"inconclusive: 16.4 µM [activator, single point]",
Nc1[nH]n2c(=O)cc(-c3ccccc3)nc2c1N=Nc1ccccc1,inactive,
COc1cc(C(=O)N/N=C/c2ccc3c(c2)c2ccccc2n3C)ccc1O,"inconclusive: 18.4 µM [activator, single point]",
CCOc1ccccc1NC(=O)CN1C(=O)COc2ccc(C)cc21,"inconclusive: 32.6 µM [activator, single point]",
CN1CCN(S(=O)(=O)c2ccc(NC(=O)c3ccc(Br)o3)cc2)CC1,inactive,
COc1ccc(COc2cc(-c3cccc(OC)c3)nc3ccc(NC(C)=O)cc23)cc1,"inconclusive: 29.1 µM [activator, single point]",
COc1ccc(C2C(C)C(=O)C(C)C(c3ccc(OC)cc3)N2N=O)cc1 (stereo not drawn),inactive,
CSc1ccc(CCNC(=O)c2cccc3c2C(=O)N(C2CCCCC2)C3)cc1,"inconclusive: 18.4 µM [activator, single point]",
CS(=O)(=O)Nc1ccccc1C(=O)NCCSc1ccccc1,"inconclusive: 9.2 µM [activator, partial curve, poor fit]",
Cc1noc(C)c1COC(=O)c1cccc(N(C)C)c1,inactive,
CCC(C)Oc1cc(-c2ccnc(Nc3cccc(Cl)c3)n2)ccn1 (stereo not drawn),"inconclusive: 25.9 µM [activator, single point]",
N#C/C(=C(/O)COC(=O)c1ccc(O)cc1)c1nc2ccccc2[nH]1,inactive,
O=C(Nc1cccc(-c2nc3ccccc3[nH]2)c1)c1ccccn1,inactive,
Brc1cccc(CNc2nc3ccccc3n2CCN2CCCCC2)c1,inactive,
O=C(CCCCn1c(=O)[nH]c2ccccc2c1=O)N1CCN(c2cccc(C(F)(F)F)c2)CC1,"inconclusive: 32.6 µM [activator, partial curve, poor fit]",
Cc1ccc(Nc2nc(C)nc3c2oc2ccccc23)cc1,inactive,
O=C1NC(c2ccccc2)=C(c2ccc3ccccc3n2)C(c2ccccc2)N1 (stereo not drawn),"inconclusive: 32.6 µM [activator, partial curve, poor fit]",

SMILES,Potency,re-replication activation
COc1cc(/C=C(\C#N)c2nc3ccccc3s2)ccc1OCC(=O)Nc1ccccc1,"inconclusive: 29.1 µM [activator, single point]",
COc1ccccc1OCCCCN1CCN(C(c2ccccc2)c2ccccc2)CC1,"inconclusive: 25.9 µM [activator, partial curve, poor fit]",
Cc1ccc(S(=O)(=O)N2CCC(C(=O)Nc3ccccc3N3CCCCC3)CC2)cc1,inactive,
O=C(Nc1nccs1)c1ccc(S(=O)(=O)NCc2cccs2)cc1,inactive,
Cc1ccc(Cl)cc1N1CCN(C(=O)Cc2cn(C)c3ccccc23)CC1,"inconclusive: 20.6 µM [activator, single point]",
Cc1ccccc1NC(=O)C(=O)NCc1ccccn1,inactive,
CCCCN(CC)C(=O)CSc1nc2n[nH]c(C)c2c(=N)n1-c1cccc(C)c1,"inconclusive: 20.6 µM [activator, single point]",
O=C(O)CCCNC(=O)C(c1ccccc1)c1ccccc1,inactive,
O=C(Cc1ccccc1F)NCC(=O)Nc1ccccc1Br,"inconclusive: 29.1 µM [activator, single point]",
Cc1ccccc1Cn1cnc2c(NS(C)(=O)=O)c(C)c(C)cc21,inactive,
Cc1ccc(CN(CC(=O)N/N=C/c2ccccc2[N+](=O)[O-])S(=O)(=O)c2ccc(C)cc2)cc1,inactive,
N#Cc1ccc(COC(=O)C2CCC(=O)N2)cc1 (stereo not drawn),,inactive: 0.922% [at 9.22 µM]
Cc1cc(N2CCOCC2)nc2ccc(NC(=O)C3CCC(C)CC3)cc12 (stereo not drawn),"inconclusive: 11.6 µM [activator, partial curve]",
COc1ccc(/C=N/N2CCOCC2)cc1COc1ccc(F)cc1,"inconclusive: 23.1 µM [activator, single point]",
Oc1cc(NCCN2CCOCC2)cc2cccnc12,"inconclusive: 0.184 µM [activator, full curve, poor fit]",
CC(=O)Nc1sc2c(c1C(c1ccccc1Cl)N1CCN(CCO)CC1)CCCC2 (stereo not drawn),inactive,
O=C(Cc1ccc(S(=O)(=O)N2CCOCC2)s1)NCCOc1ccccc1,inactive,
Cc1ccc(C(=O)NCCN2C3=NC[C@H](Cc4ccc(O)cc4)N3C[C@H]2Cc2ccc(O)cc2)cc1Br,,inactive: -56.1% [at 9.22 µM]
S=C(NCc1ccco1)N/N=C/c1ccncc1,inactive,
CCOC(=O)c1ccc(NC(=O)c2ccc(NC(=O)c3ccccc3)cc2)cc1,"inconclusive: 29.1 µM [activator, single point]",
Cc1cccc(N2CCN(C(=O)CN3CCOc4ccccc43)CC2C)c1 (stereo not drawn),"inconclusive: 20.6 µM [activator, partial curve, poor fit]",
COc1cc(/C=C/C(=O)c2ccc3c(c2)OCCO3)cc(OC)c1OC,"inconclusive: 8.2 µM [activator, partial curve, poor fit]",

# Given bar-delimited: entries from further up.
SMILES | Potency | re-replication activation
Cn1nc(C(C)(C)C)cc1C(=O)O | inactive | 
CCN(CC)CCn1c(=O)n(-c2ccc(Cl)cc2)c(=O)c2c3c(sc21)CN(C)CC3 | inconclusive: 29.1 µM [activator, single point] | 
CCOC(=O)[C@@H]1[C@H]2COc3ccccc3[C@@H]2N2C(=O)N(c3cccc(Cl)c3)C(=O)[C@@]12C | inconclusive: 3.26 µM [activator, partial curve, poor fit] | 
C=CCSc1cc(C)nc2c(-c3ccccc3)c(C)nn12 | inconclusive: 3.66 µM [activator, partial curve, poor fit] | 
O=C(NCc1ccco1)C1Cc2ccccc2CN1S(=O)(=O)c1ccccc1F (stereo not drawn) | inconclusive: 23.1 µM [activator, single point] | 
Cn1c(=O)c([N+](=O)[O-])c(Cl)c2ccccc21 | active: 16.4 µM | 
COc1cc2c(cc1OC)[C@@H](NC(=O)COc1ccccc1)[C@H](OCc1ccccc1)C2 | inactive | 
Cn1cccc1C(C#N)c1ncc(C(F)(F)F)cc1Cl (stereo not drawn) | inconclusive: 29.1 µM [activator, single point] | 
CNC(=O)/C(C#N)=C/c1ccc(OCCOc2ccccc2)cc1 | inconclusive: 6.51 µM [activator, partial curve, poor fit] | 
C=CC(=O)Nc1cccc(Oc2ccnc3[nH]ccc23)c1 | inconclusive: 1.46 µM [activator, partial curve, poor fit] | 
C[C@H]1CN([C@@H](C)CO)C(=O)c2cc(NC(=O)C3CCCCC3)ccc2O[C@H]1CN(C)Cc1ccc(-c2ccccc2)cc1 | inactive | 
CC(C)Oc1ccc(CCC(=O)N/N=C/c2ccncc2)cc1 | inconclusive: 11.6 µM [activator, single point] | 
S=c1[nH]nc(-c2cc(-c3ccccc3)n[nH]2)n1/N=C/c1cccs1 | inconclusive: 11.6 µM [activator, partial curve, poor fit] | 
Cc1ccc(C)c(NC(=S)NCCSc2ccc(Cl)cc2)c1 | inactive | 
CCn1c(SCC(=O)N2CCCCC2C)nnc1-c1ccc(S(=O)(=O)N2CCN(C)CC2)cc1 (stereo not drawn) | inconclusive: 6.51 µM [activator, full curve] | 
CC1Sc2ccc(C(=O)N3CCCC(C(F)(F)F)C3)cc2NC1=O (stereo not drawn) | inconclusive: 5.8 µM [activator, partial curve, poor fit] | 
Cc1ccc(-n2cc(CNCCCn3ccnc3C)c(-c3ccc(F)cc3)n2)cc1 | inconclusive: 29.1 µM [activator, single point] | 
Cc1sc(NC(=O)c2ccco2)c(C(c2cccnc2)N2CCN(c3ccc(F)cc3)CC2)c1C (stereo not drawn) | inconclusive: 16.4 µM [activator, single point] | 
COc1ccc(OC)c(-c2nc3cc4ccccc4cc3nc2-c2ccccc2)c1 | inconclusive: 29.1 µM [activator, single point] | 
CCN1CCN(c2ccc(S(=O)(=O)N3CCCCC3)cc2NC(=O)COc2cc(C)ccc2Cl)CC1 | inconclusive: 16.4 µM [activator, single point] | 
